Laboratory results as given in US20140030266A1.
These are yes or no findings as the source states them, for the method shown. Binding calls can cover weak binding; strength is not graded here.

Chains of the proteins cited; added tags and fusions are not shown. Lines headed by an entry give the natural chain unless they say otherwise; changes in a name come on top. Residues count along the entry.
UniProt P04233: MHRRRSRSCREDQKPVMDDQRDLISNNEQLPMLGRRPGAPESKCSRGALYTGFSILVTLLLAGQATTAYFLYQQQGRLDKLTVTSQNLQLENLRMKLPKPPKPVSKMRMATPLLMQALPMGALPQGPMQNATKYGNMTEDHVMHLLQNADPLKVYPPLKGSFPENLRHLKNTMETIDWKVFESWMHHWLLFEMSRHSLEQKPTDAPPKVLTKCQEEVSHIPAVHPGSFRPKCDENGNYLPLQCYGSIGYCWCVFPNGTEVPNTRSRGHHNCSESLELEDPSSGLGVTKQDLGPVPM
UniProt P30046, residues 2-118: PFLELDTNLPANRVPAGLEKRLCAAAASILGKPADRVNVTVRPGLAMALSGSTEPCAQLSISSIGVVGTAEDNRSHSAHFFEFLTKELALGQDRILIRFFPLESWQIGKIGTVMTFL

Legend:
[1] = molecular target: MIF receptor CD74 ectodomain (CD74 73-232, sCD74) (UniProt P04233); experiment: competition binding and SPR (legend of FIG. 3)
[2] = molecular target: MIF receptor CD74 ectodomain (CD74 73-232, sCD74) (UniProt P04233); experiment: competition binding assay on sCD74 with biotinylated human MIF as the competed ligand [panel A]
[3] = molecular target: MIF receptor CD74 ectodomain (CD74 73-232, sCD74) (UniProt P04233); experiment: summary sentence of Example 1
[4] = molecular target: MIF receptor CD74 ectodomain (CD74 73-232, sCD74) (UniProt P04233); experiment: surface plasmon resonance (BIAcore), sCD74 immobilized, D-DT in five serial dilutions [panel B]
[5] = molecular target: MIF receptor CD74 ectodomain (CD74 73-232, sCD74) (UniProt P04233); experiment: SPR (BIAcore 2000)
[6] = molecular target: MIF receptor CD74 ectodomain (CD74 73-232, sCD74) (UniProt P04233); experiment: competition binding and SPR

Measured: binding

human D-dopachrome tautomerase (D-DT), recombinant native-sequence protein (from UniProt P30046 2-118) (ligand)
binds: all assays above
